Source: paper PMC9857240
These are yes or no findings as the source states them, for the method shown. In cells and extracts the contact can be indirect. Some binding calls cover weakened binding; strength is not graded here. Tags and fused reporters may be left off the sequences shown.

The chains behind the UniProt entries cited, without tags or fusion partners.
UniProt P12956: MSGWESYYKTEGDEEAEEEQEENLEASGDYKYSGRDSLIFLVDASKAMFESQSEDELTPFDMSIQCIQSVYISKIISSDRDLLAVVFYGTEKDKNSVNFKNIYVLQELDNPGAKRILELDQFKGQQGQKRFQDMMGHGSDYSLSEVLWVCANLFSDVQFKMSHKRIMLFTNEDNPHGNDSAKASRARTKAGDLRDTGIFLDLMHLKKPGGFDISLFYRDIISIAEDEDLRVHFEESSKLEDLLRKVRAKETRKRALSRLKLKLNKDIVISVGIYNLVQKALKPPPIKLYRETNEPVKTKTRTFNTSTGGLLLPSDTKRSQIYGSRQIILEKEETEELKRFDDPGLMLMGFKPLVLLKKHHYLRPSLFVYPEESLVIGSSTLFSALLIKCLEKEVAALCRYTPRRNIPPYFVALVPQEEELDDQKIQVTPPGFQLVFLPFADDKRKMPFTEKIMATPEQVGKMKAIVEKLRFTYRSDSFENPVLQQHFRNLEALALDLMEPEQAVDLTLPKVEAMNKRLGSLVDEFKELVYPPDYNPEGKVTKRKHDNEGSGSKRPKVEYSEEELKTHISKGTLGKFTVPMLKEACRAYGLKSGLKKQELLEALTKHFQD

Biological target: T1, GFP-IPO13 (UniProt Q8K0C1)
T1 sequence: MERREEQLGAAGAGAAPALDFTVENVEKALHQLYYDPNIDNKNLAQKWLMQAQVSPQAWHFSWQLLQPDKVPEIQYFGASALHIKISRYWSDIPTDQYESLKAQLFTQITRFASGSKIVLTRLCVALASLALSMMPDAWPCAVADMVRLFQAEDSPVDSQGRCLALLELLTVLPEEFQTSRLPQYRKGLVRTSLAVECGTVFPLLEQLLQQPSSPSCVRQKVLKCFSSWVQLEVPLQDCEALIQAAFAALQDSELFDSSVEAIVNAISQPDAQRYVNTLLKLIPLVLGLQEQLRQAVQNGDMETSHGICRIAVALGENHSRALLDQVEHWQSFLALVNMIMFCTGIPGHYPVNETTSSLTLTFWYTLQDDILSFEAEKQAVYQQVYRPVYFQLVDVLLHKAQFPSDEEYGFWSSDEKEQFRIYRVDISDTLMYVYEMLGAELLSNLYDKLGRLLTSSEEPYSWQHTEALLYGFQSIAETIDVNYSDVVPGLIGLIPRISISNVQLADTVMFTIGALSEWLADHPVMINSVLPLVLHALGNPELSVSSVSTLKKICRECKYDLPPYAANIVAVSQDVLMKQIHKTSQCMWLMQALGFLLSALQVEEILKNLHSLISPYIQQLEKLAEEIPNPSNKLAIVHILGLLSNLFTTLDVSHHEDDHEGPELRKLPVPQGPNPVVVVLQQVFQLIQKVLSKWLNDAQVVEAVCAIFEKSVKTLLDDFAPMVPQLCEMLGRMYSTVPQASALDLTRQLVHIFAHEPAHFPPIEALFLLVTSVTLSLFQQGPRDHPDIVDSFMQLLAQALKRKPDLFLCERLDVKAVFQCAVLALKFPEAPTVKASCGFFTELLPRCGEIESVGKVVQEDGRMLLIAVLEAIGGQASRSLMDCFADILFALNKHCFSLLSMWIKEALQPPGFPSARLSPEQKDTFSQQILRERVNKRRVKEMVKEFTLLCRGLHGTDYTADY
Assay: co-IP; HeLa, transfected, with or without 125 uM H2O2 for 1 h, glutaraldehyde protein cross-linking before lysis; GFP-Trap; Western blot

binding	Substance
binds	endogenous KU70 (from UniProt P12956 1-609)
binds	mCherry-KU70 (from UniProt P12956 1-609)
